Experiment [1] concerns the target T1, long-chain fatty acid acyl-CoA dehydrogenase (ACADL), wild type, Myc-tagged (UniProt P15650).
T1 sequence: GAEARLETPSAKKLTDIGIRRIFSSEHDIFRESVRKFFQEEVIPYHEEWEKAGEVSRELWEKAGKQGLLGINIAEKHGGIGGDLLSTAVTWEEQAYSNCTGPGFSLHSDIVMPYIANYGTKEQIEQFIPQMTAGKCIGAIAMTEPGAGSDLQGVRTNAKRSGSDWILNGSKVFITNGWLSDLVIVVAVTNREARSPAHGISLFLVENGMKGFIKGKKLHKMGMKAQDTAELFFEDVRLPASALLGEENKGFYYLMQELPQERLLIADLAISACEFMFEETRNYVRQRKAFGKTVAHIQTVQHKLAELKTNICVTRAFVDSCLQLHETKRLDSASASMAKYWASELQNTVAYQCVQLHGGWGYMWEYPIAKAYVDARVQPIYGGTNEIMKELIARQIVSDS
Briefly: co-IP; Myc-tagged ACADL, 3-KAT or ATP5A immunoprecipitated with anti-Myc-Tag antibody (5 µg, overnight, 4 °C) from cardiomyocytes in 20 mM Tris pH 7.5, 150 mM NaCl, 1 mM EDTA, 1% Triton X-100, protein A/G agarose; blots for Epac1 and CaMKII; cells stimulated or not with 8-CPT-AM (10 µM, 30 min), preincubated or not with CE3F4 (20 µM) or KN-93 (5 µM); IgG as control for IP.

Amino acid sequences for entries named in this document (tags omitted).
UniProt Q9Z1C8: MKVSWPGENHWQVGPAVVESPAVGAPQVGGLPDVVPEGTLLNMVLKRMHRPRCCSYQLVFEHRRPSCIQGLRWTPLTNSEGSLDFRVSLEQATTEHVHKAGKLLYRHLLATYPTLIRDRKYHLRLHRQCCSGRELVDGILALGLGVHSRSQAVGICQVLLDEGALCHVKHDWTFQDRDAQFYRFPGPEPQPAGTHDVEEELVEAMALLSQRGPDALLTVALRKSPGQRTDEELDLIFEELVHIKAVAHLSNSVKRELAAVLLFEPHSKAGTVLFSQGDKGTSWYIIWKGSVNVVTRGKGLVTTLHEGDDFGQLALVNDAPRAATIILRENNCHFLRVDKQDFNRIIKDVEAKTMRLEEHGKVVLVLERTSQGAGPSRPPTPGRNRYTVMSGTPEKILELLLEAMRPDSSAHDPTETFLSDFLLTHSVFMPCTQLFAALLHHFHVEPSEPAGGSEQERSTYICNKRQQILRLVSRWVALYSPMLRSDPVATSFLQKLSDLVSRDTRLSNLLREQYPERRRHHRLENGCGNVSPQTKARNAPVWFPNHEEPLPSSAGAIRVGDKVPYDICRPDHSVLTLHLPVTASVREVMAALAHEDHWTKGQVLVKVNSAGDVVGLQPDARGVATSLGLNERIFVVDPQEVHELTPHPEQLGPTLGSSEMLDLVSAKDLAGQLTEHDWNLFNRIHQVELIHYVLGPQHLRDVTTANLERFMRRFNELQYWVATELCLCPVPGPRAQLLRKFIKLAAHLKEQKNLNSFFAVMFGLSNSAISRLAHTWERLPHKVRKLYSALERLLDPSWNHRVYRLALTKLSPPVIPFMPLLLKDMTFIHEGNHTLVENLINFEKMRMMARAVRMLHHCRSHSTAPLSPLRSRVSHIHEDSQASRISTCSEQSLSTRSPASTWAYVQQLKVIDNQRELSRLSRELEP

In experiment [2] the target is T2, 3-ketoacyl-CoA thiolase (3-KAT), Myc-tagged (UniProt P13437).
T2 sequence: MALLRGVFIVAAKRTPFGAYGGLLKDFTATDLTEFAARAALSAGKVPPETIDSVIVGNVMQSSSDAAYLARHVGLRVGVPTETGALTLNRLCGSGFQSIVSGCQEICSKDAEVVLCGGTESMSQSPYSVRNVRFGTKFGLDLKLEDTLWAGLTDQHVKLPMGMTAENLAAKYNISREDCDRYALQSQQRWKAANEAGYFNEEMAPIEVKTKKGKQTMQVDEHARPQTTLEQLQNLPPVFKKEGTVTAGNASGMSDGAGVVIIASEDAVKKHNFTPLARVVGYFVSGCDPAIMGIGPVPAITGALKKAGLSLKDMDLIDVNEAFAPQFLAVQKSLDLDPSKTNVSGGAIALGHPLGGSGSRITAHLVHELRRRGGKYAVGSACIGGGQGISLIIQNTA
Described as above.

Results are given in words; binding and its absence hold for the method and conditions named. In cells and extracts the contact can be indirect. Some binding calls cover weakened binding; strength is not graded here. Where a sequence is shown, tags or fusion partners need not be part of it.

For the substance “exchange protein directly activated by cyclic AMP 1 (Epac1) (from UniProt Q9Z1C8 1-926)”, the binding result in experiment [1] and in experiment [2] was “binds” in each case.
